In publication PMC12767443:
Results are given in words; binding and its absence hold for the method and conditions named. In cells and extracts the contact can be indirect. Some binding calls cover weakened binding; strength is not graded here.

Target: T1, translocase of outer mitochondrial membrane 40 (human (endogenous in HuCCT1)) (UniProt O96008)
T1 sequence: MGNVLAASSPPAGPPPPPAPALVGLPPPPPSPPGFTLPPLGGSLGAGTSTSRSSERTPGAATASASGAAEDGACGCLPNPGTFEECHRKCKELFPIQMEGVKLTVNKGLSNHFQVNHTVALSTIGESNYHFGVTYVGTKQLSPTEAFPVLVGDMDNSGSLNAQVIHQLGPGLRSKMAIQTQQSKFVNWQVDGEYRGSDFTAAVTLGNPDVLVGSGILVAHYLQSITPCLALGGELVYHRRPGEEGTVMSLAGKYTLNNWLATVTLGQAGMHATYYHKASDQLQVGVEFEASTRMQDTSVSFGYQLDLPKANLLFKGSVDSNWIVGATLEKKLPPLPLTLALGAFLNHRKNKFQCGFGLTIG
Assay: co-IP; Pierce Classic Magnetic Bead IP/Co-IP kit; lysates of HuCCT1 cells transfected with KD-NC or KD-NKILA; immunoprecipitating antibodies (control IgG, anti-MTX1, anti-TOMM40) overnight at 4°C, magnetic beads 1 h at room temperature; Western blot for MTX1 and TOMM40; NKILA silencing reduced the binding

binding: binds
B1: metaxin 1 (protein, UniProt Q13505 1-466)
chain: MLLGGPPRSPRSGTSPKGPWSSTGHVQFGKSPQTWPRRTRPRSPEPAAPSGVRGSTWTRRRDSPRRAGPTALSRYVGHLWMGRRPPSPEARGPVPRSSAASRARRSLASPGISPGPLTATIGGAVAGGGPRQGRAEAHKEVFPGQRVGKMAAPMELFCWSGGWGLPSVDLDSLAVLTYARFTGAPLKVHKISNPWQSPSGTLPALRTSHGEVISVPHKIITHLRKEKYNADYDLSARQGADTLAFMSLLEEKLLPVLVHTFWIDTKNYVEVTRKWYAEAMPFPLNFFLPGRMQRQYMERLQLLTGEHRPEDEEELEKELYREARECLTLLSQRLGSQKFFFGDAPASLDAFVFSYLALLLQAKLPSGKLQVHLRGLHNLCAYCTHILSLYFPWDGAEVPPQRQTPAGPETEEEPYRRRNQILSVLAGLAAMVGYALLSGIVSIQRATPARAPGTRTLGMAEEDEEE
